In publication doi:10.1101/558387:
No constants are given. Whether binding was seen depends on the method and setting. Binding calls can cover weak binding; strength is not graded here. Sequences can lack the tags named with a protein. For part of these data: In cells and extracts the contact can be indirect.

Legend:
[1] = target: PRH1 fused to the GAL4 DNA binding domain (pGBKT7-PRH1) (Arabidopsis thaliana) (UniProt Q39186); assay: two-hybrid
[2] = target: C-terminal Myc-tagged full length PRH1 (PRH1-Myc) (Arabidopsis thaliana); assay: co-IP
[3] = target: PRH1 fused to the N-terminal half of YFP (PRH1-YFP^N) (Arabidopsis thaliana); assay: split reporter

B1: GATA23 fused to the GAL4 activation domain (pGADT7-GATA23) (protein, UniProt Q8LC59 1-120)
chain: MDPRKLLSCSSSYVSVRMKEEKGTIRCCSECKTTKTPMWRGGPTGPKSLCNACGIRHRKQRRSELLGIHIIRSHKSLASKKINLLSSSHGGVAVKKRRSLKEEEQAALCLLLLSCSSVLA
For B1, the binding [1] was “binds”.

B2: C-terminal GFP-tagged full length GATA23 (GATA23-GFP) (protein, UniProt Q8LC59 1-120)
chain: B1 chain
In the case of B2, the binding [2] is reported as “binds”.

B3: GATA23 fused to the C-terminal half of YFP (GATA23-YFP^C) (protein, UniProt Q8LC59 1-120)
chain: B1 chain
In the case of B3, the binding [3] is reported as “binds”.
